# Source: US20230414779A1, “ANTIGEN-BINDING FRAGMENTS AND USES THEREOF” (NewSouth Innovations Pty Limited, priority 2020, published 2023)
# Some results were stated once for a whole list of compounds, not compound by compound.
# System: whole blood
# Test: HIT condition reconstituted in whole blood, microfluidics chamber (thrombus formation under flow)
# Type: cell-based, human
# Conditions: vWf-coated biochip, 20 dyne/cm^2, 37° C.
molecule,measurement,value
HRU5: Humanized variable heavy and variable light chains derived from the IV.3 MoAb linked with a GGGGWAWVWLTETAVGGGGS linker (protein) scFv: EVQLVESGPELKKPGETVKISCKASGYTFTNYGMNWVKQAPGKGLKWMGWLNTYTGESIYPDDFKGRFAFSLETSASTAYLQINNLKSEDTATYFCARGDYGYDDPLDYWGQGTSVTVSSGGGGWAWVWLTETAVGGGGSDIVMTQAPPSVPVTPGESVSISCRSSKSLLHTNGNTYLHWFLQKPGQSPRLLIYRMSVLASGVPDRFSGSGSGTDFTLKISRVEAEDVGVYYCMQHLEYPLTFGAGTKLEIKRAHHHHHH,"inhibition of deposition of platelets, DNA and neutrophils",Complete inhibition
